For test [1], the target named is LexA-L2 280-473 fusion construct (HPV16 minor capsid protein L2, residues 280-473) (human papillomavirus type 16) (UniProt P03107). Kind of test: two-hybrid; yeast strain L40; bait LexA-L2 280-473, prey B42-HA-MYPOP; growth without histidine (-His) reports bait-prey interaction.
Test [2] concerns the target HPV16 L2 (minor capsid protein L2) (human papillomavirus type 16) (UniProt P03107). The test is described as follows: co-IP; HaCaT cells co-transfected with HPV16 L2 and FLAG-tagged MYPOP; immune complexes precipitated and detected with a FLAG or L2 antibody.

Chains of the proteins cited; added tags and fusions are not shown. Lines headed by an entry give the natural chain unless they say otherwise; changes in a name come on top. Residues count along the entry.
UniProt P03107: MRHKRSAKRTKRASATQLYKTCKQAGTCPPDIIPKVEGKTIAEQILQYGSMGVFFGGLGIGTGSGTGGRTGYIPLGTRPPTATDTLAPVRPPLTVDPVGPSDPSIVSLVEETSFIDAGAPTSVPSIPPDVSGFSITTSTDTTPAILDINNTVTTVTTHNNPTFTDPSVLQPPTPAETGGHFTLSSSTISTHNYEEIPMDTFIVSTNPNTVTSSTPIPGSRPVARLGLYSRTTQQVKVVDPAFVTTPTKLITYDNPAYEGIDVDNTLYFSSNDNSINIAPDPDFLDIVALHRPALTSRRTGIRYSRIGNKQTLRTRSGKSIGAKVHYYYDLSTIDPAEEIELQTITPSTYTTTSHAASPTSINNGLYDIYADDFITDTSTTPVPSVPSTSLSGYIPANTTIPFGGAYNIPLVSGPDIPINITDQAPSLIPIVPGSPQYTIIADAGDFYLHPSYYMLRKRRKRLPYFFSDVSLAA
LexA-L2 280-473 fusion construct (HPV16 minor capsid protein L2, residues 280-473): residues 280-473 of P03107

Results are given in words; binding and its absence hold for the method and conditions named. For some assays here: Binding seen in cells or lysates may run through a third protein. Some binding calls cover weakened binding; strength is not graded here. Sequences can lack the tags named with a protein.

B1: B42-HA-MYPOP (Myb-related transcription factor, partner of profilin) (protein, UniProt Q86VE0 1-399)
chain: MASAAAGEAEETTRLRKPRFSFEENQILIREVRAHYPQLYGAQSRRVSVAERRRVWDGIAAKINGITSWKRTGQEVQKRWNDFKRRTKEKLARVPHSTQGAGPAAEDAFSAEEETIFAILGPGVAAPGAGAGAEEPPAAPSSQPPPPSACPQRYVLSEDRREDRRADTSAHSKAGSSSPEPWARPSCTPQEGGCPRPKERESPPPSALQPVQLPRLALSPPPPAPPLPPPPPLAQVAPSPPSPPPPPRPPPTLSASDPSLDFLRAQQETANAIRELAGTLRQGLAKLSEALSALLPLLPGTPVDSLPPPLPPPPPPPPPPRPVLPPPAPKVEITPEPVSVVAAVVDGAVVAARGVIIAPRSEEGAPRPPPAPLPPHDSPPHKRRKGFPTRKRRGRWKSP
B1: the binding entry in test [1] is given as “binds”.

B2: FLAG-tagged MYPOP (Myb-related transcription factor, partner of profilin) (protein, UniProt Q86VE0 1-399)
chain: MASAAAGEAEETTRLRKPRFSFEENQILIREVRAHYPQLYGAQSRRVSVAERRRVWDGIAAKINGITSWKRTGQEVQKRWNDFKRRTKEKLARVPHSTQGAGPAAEDAFSAEEETIFAILGPGVAAPGAGAGAEEPPAAPSSQPPPPSACPQRYVLSEDRREDRRADTSAHSKAGSSSPEPWARPSCTPQEGGCPRPKERESPPPSALQPVQLPRLALSPPPPAPPLPPPPPLAQVAPSPPSPPPPPRPPPTLSASDPSLDFLRAQQETANAIRELAGTLRQGLAKLSEALSALLPLLPGTPVDSLPPPLPPPPPPPPPPRPVLPPPAPKVEITPEPVSVVAAVVDGAVVAARGVIIAPRSEEGAPRPPPAPLPPHDSPPHKRRKGFPTRKRRGRWKSP
In the case of B2, the binding result in test [2] is listed as “binds”.
